Reference: publication doi:10.1101/2022.03.17.484815
No constants are given. Whether binding was seen depends on the method and setting. Binding seen in cells or lysates may run through a third protein. Tags and fused reporters may be left off the sequences shown.

How the values were obtained:
VOZ2-C-YFP (Arabidopsis) = biological target: T1, VOZ2-C-YFP (Arabidopsis) (UniProt Q9SLB9); test: split reporter
T1 sequence: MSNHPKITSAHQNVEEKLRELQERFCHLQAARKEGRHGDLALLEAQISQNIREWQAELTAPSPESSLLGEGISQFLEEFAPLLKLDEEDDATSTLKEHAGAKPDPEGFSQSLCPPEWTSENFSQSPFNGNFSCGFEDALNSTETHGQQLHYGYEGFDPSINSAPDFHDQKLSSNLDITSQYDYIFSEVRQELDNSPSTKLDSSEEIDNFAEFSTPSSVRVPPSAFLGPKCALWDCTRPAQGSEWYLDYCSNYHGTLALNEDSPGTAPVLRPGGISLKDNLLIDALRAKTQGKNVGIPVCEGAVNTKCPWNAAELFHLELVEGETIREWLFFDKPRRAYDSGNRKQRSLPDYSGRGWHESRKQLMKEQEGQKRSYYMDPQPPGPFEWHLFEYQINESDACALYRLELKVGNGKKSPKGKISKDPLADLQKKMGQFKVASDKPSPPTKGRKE

VOZ1-C-YFP (Arabidopsis) = biological target: T2, VOZ1-C-YFP (Arabidopsis) (UniProt Q9SGQ0); test: split reporter
T2 sequence: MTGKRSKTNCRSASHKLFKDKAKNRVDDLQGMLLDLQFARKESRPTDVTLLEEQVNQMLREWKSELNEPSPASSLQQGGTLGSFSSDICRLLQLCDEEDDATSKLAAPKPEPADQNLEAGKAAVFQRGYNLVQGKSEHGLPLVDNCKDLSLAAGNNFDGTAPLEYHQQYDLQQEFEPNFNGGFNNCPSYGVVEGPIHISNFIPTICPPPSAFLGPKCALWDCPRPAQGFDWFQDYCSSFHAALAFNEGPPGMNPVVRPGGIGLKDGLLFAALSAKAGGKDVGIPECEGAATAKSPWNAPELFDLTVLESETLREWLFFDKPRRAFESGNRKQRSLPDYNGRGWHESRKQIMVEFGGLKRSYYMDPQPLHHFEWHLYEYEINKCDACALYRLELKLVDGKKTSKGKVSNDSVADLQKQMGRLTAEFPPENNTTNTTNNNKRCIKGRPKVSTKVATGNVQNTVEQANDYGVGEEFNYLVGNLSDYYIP

binding (VOZ2-C-YFP (Arabidopsis)): no binding | binding (VOZ1-C-YFP (Arabidopsis)): no binding
Substance: Vacuoleless Gametophytes (VLG) fused to a YFP fragment for BiFC (Arabidopsis)
